Source: doi:10.1101/2022.07.11.499617
Results are given in words; binding and its absence hold for the method and conditions named. For some of these results: Binding seen in cells or lysates may run through a third protein. Some binding calls cover weakened binding; strength is not graded here. Where a sequence is shown, tags or fusion partners need not be part of it.

Experiments:
[1] = target: T1, MYC-tagged PUB30 (PUB30-MYC), wild type (Arabidopsis thaliana) (UniProt Q058P4); assay: co-IP
T1 sequence: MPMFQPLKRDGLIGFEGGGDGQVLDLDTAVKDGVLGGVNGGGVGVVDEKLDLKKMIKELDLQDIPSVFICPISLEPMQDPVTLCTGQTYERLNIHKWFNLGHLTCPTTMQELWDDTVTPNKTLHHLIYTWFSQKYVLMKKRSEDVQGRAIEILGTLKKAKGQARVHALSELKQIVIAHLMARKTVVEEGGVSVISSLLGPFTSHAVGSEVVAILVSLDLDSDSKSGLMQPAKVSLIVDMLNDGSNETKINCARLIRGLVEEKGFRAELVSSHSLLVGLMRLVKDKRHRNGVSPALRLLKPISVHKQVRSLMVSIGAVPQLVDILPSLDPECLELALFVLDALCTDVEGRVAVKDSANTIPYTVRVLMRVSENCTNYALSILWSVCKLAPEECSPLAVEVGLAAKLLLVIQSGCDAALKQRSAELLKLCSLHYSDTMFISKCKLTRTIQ

[2] = target: T2, MYC-tagged PUB31 (PUB31-MYC), wild type (Arabidopsis thaliana) (UniProt Q9FHN9); assay: co-IP
T2 sequence: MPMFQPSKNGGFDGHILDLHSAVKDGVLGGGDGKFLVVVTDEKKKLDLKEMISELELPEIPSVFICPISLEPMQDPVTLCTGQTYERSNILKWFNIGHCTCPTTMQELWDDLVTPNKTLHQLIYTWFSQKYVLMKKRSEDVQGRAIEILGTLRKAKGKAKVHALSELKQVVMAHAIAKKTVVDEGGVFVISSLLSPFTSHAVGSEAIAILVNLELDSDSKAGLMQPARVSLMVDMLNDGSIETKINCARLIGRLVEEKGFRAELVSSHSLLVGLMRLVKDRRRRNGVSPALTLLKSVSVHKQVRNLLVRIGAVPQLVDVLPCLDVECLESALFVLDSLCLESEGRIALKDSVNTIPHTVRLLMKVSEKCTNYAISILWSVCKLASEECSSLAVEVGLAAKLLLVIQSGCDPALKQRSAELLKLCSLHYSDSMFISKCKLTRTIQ

[3] = target: T3, PUB30_(T155D)-MYC (phosphomimetic) (Arabidopsis thaliana) (UniProt Q058P4); assay: co-IP
T3 sequence: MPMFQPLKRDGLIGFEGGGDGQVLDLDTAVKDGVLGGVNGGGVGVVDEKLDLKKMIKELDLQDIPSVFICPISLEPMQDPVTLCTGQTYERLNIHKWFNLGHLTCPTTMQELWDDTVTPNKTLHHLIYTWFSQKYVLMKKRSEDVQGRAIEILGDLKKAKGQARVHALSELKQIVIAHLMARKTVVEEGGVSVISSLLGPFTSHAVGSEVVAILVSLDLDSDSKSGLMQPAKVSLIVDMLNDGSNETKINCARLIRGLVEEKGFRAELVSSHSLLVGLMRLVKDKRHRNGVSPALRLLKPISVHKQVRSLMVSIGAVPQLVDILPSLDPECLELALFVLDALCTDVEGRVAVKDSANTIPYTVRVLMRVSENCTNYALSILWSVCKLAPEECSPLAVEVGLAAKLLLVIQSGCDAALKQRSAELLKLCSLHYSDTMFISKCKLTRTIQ

[4] = target: T4, PUB31_(T151D)-MYC (phosphomimetic) (Arabidopsis thaliana) (UniProt Q9FHN9); assay: co-IP
T4 sequence: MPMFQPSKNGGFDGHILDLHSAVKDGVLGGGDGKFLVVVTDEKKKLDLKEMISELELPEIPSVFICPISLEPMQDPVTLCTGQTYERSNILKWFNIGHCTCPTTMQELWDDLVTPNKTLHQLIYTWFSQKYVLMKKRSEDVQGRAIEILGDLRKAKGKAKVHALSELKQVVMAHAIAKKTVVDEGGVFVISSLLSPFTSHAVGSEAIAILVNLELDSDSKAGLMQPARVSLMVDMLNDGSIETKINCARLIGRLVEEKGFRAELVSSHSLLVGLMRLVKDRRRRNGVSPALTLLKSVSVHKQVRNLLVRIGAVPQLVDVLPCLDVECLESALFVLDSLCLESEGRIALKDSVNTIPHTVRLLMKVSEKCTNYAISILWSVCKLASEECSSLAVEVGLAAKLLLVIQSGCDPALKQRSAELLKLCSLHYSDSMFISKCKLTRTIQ

[5] = target: BR-… KINASE1 (BSK1), two-hybrid fusion (Arabidopsis thaliana) (UniProt Q944A7); assay: two-hybrid
[6] = target: BR-… KINASE2 (BSK2), two-hybrid fusion (Arabidopsis thaliana) (UniProt Q9LS26); assay: two-hybrid
[7] = target: T5, YODA (YDA), two-hybrid fusion (Arabidopsis thaliana) (UniProt Q9CAD5); assay: two-hybrid
T5 sequence: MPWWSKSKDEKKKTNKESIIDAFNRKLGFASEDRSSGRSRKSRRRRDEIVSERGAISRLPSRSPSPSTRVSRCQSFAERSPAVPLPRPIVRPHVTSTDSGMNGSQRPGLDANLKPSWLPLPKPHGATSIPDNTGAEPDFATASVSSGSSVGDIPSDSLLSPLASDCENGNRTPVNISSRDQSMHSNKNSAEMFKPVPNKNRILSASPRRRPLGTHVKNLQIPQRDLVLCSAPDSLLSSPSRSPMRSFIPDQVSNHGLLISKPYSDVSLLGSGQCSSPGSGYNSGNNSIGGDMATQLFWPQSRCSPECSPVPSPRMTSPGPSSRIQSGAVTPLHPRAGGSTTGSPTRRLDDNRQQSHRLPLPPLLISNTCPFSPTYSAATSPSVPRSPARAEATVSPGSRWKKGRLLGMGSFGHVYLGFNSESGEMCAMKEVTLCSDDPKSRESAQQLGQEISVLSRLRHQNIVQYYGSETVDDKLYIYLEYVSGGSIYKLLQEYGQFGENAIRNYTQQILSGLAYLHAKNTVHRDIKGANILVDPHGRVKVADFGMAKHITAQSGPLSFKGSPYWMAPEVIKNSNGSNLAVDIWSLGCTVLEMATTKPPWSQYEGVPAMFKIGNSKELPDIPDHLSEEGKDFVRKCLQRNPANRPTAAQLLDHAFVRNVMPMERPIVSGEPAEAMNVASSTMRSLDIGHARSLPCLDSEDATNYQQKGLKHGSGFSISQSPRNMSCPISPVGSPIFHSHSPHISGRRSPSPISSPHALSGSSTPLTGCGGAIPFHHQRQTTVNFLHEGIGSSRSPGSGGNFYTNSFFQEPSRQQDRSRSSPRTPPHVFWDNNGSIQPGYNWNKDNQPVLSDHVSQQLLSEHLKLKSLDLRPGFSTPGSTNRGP

B1: HA-tagged ERECTA (ERECTA-HA) (receptor, UniProt Q42371 25-976)
chain: EEGATLLEIKKSFKDVNNVLYDWTTSPSSDYCVWRGVSCENVTFNVVALNLSDLNLDGEISPAIGDLKSLLSIDLRGNRLSGQIPDEIGDCSSLQNLDLSFNELSGDIPFSISKLKQLEQLILKNNQLIGPIPSTLSQIPNLKILDLAQNKLSGEIPRLIYWNEVLQYLGLRGNNLVGNISPDLCQLTGLWYFDVRNNSLTGSIPETIGNCTAFQVLDLSYNQLTGEIPFDIGFLQVATLSLQGNQLSGKIPSVIGLMQALAVLDLSGNLLSGSIPPILGNLTFTEKLYLHSNKLTGSIPPELGNMSKLHYLELNDNHLTGHIPPELGKLTDLFDLNVANNDLEGPIPDHLSSCTNLNSLNVHGNKFSGTIPRAFQKLESMTYLNLSSNNIKGPIPVELSRIGNLDTLDLSNNKINGIIPSSLGDLEHLLKMNLSRNHITGVVPGDFGNLRSIMEIDLSNNDISGPIPEELNQLQNIILLRLENNNLTGNVGSLANCLSLTVLNVSHNNLVGDIPKNNNFSRFSPDSFIGNPGLCGSWLNSPCHDSRRTVRVSISRAAILGIAIGGLVILLMVLIAACRPHNPPPFLDGSLDKPVTYSTPKLVILHMNMALHVYEDIMRMTENLSEKYIIGHGASSTVYKCVLKNCKPVAIKRLYSHNPQSMKQFETELEMLSSIKHRNLVSLQAYSLSHLGSLLFYDYLENGSLWDLLHGPTKKKTLDWDTRLKIAYGAAQGLAYLHHDCSPRIIHRDVKSSNILLDKDLEARLTDFGIAKSLCVSKSHTSTYVMGTIGYIDPEYARTSRLTEKSDVYSYGIVLLELLTRRKAVDDESNLHHLIMSKTGNNEVMEMADPDITSTCKDLGVVKKVFQLALLCTKRQPNDRPTMHQVTRVLGSFMLSEQPPAATDTSATLAGSCYVDEYANLKTPHSVNCSSMSASDAQLFLRFGQVISQNSE
- binding [1]: binds
- binding [2]: binds
- binding [3]: binds
- binding [4]: binds

B2: PUB31, two-hybrid fusion used against BSK1/2 and YODA (enzyme, UniProt Q9FHN9 1-444)
chain: MPMFQPSKNGGFDGHILDLHSAVKDGVLGGGDGKFLVVVTDEKKKLDLKEMISELELPEIPSVFICPISLEPMQDPVTLCTGQTYERSNILKWFNIGHCTCPTTMQELWDDLVTPNKTLHQLIYTWFSQKYVLMKKRSEDVQGRAIEILGTLRKAKGKAKVHALSELKQVVMAHAIAKKTVVDEGGVFVISSLLSPFTSHAVGSEAIAILVNLELDSDSKAGLMQPARVSLMVDMLNDGSIETKINCARLIGRLVEEKGFRAELVSSHSLLVGLMRLVKDRRRRNGVSPALTLLKSVSVHKQVRNLLVRIGAVPQLVDVLPCLDVECLESALFVLDSLCLESEGRIALKDSVNTIPHTVRLLMKVSEKCTNYAISILWSVCKLASEECSSLAVEVGLAAKLLLVIQSGCDPALKQRSAELLKLCSLHYSDSMFISKCKLTRTIQ
- binding [5]: no binding
- binding [6]: no binding
- binding [7]: no binding
